# Results of single-concentration screens

Chains of the proteins cited; added tags and fusions are not shown.
UniProt I6X8D2, whole entry: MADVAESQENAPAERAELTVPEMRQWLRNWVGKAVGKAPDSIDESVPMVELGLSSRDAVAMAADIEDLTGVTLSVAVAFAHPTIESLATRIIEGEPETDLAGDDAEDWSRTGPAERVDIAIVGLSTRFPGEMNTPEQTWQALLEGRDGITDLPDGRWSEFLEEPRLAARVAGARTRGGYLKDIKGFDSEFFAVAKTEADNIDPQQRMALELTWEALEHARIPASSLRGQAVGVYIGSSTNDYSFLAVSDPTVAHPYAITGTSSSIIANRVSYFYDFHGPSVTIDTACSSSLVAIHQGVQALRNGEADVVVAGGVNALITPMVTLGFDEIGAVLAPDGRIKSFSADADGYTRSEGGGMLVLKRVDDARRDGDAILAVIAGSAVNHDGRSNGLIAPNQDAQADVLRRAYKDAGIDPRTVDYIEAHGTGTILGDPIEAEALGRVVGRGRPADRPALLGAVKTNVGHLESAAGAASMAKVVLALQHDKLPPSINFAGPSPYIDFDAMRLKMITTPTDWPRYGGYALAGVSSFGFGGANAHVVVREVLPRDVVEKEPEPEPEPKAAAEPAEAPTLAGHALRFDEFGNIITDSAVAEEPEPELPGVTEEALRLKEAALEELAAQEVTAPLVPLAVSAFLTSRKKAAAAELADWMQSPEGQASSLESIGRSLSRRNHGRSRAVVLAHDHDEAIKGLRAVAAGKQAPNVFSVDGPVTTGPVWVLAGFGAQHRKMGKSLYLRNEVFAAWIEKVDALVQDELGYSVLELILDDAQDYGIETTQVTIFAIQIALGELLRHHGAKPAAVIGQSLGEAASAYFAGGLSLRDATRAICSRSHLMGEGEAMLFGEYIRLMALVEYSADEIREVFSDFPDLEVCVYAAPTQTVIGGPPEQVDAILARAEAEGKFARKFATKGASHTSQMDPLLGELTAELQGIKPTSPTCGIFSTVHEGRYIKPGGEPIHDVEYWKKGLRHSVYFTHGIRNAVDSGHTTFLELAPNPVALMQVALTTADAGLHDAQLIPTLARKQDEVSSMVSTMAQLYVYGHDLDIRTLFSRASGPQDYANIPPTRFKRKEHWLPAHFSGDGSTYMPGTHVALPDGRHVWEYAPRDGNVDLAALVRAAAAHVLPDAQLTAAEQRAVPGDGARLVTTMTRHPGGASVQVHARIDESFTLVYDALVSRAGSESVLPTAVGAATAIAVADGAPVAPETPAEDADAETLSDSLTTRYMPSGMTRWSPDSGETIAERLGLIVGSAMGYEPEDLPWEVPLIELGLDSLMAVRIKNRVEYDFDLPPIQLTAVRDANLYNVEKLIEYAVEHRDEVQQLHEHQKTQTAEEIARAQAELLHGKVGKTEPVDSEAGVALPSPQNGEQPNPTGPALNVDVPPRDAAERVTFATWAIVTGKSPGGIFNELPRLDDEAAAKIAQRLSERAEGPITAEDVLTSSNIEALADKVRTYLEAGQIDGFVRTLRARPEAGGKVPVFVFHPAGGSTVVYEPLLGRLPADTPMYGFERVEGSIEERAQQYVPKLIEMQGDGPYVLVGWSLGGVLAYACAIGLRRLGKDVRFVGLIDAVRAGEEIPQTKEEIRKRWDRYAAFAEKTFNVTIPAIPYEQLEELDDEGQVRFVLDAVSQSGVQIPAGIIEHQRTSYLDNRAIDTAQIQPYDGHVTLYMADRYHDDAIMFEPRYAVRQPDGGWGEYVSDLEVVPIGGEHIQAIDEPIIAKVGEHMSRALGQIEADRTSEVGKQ
UniProt P9WNZ1, whole entry: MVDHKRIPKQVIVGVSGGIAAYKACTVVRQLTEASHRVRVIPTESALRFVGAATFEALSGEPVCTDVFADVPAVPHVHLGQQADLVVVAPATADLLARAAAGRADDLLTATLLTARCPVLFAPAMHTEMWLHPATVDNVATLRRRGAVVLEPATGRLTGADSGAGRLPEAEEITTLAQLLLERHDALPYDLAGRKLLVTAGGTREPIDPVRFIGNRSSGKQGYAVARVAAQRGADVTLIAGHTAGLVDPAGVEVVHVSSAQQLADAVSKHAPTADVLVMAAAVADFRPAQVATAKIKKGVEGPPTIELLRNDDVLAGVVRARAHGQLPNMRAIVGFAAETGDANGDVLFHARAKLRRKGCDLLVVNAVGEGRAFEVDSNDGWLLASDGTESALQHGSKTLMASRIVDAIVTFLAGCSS
UniProt P9WPC5, whole entry: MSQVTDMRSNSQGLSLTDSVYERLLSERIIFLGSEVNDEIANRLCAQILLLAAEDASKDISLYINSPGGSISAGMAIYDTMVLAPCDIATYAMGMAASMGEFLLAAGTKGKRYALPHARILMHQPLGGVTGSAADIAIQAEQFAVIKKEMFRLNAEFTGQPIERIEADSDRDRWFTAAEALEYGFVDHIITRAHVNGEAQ
UniProt P9WPC3, whole entry partner: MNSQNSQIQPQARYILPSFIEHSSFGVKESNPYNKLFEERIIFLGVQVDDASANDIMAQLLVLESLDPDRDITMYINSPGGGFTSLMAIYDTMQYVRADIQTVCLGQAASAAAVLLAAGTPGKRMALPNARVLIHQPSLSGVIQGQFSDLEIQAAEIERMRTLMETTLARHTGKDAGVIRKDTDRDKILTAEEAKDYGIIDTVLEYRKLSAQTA
UniProt P9WFT3, whole entry: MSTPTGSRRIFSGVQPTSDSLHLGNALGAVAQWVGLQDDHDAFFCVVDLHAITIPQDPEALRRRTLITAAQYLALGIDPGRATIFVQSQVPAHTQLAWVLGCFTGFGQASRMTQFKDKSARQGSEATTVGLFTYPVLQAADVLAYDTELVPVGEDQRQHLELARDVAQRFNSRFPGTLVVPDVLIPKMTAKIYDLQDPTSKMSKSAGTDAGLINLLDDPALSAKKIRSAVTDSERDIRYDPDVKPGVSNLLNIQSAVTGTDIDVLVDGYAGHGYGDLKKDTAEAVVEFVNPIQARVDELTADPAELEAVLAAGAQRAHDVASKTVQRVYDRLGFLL

Data taken from ChEMBL document CHEMBL3988442, “University of Dundee, Small-Polar-MMV Screening Library” (2021).

Pks13 thioesterase: 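Polyketide synthase Pks13, Mycobacterium tuberculosis (UniProt I6X8D2). Enzyme assay of the thioesterase domain of polyketide synthase 13; the read-out is not stated. Tested at 30 µM. Higher reads as stronger inhibition (inferred from which compounds were picked for retests). About 67,000 compounds were tested under these conditions; 0.46% (about 300) showed 50% or more at least once.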
Toxoplasma: 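Assay of Toxoplasma gondii numbers, read through their beta-galactosidase reporter with a colour substrate. Concentration: 10 µM. The record gives no direction; the compounds picked for IC50 retests had high values, so higher reads as fewer parasites. Of about 67,000 compounds tested this way, about 260 (0.38%) reached 50% or more in at least one test.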
CoaBC: 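Coenzyme A biosynthesis protein CoaBC, Mycobacterium tuberculosis (UniProt P9WNZ1). Enzyme assay of CoaBC with a phosphate dye (Biomol Green) read at 650 nm. Concentration: 30 µM. Higher reads as stronger inhibition, judged from the few compounds that gave an IC50. Most strong results did not repeat in a second test. Of about 67,000 compounds tested this way, about 40 (0.06%) reached 50% or more in at least one test.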
ClpP1P2: 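ClpP1P2, Mycobacterium tuberculosis (UniProt P9WPC5 and UniProt P9WPC3). Protease assay of ClpP1P2, read by the AMC dye that it sets free. Tested at 50 µM. Direction is inferred from only a few compounds that gave an IC50; most scored high, so higher reads as stronger inhibition. Most other retested compounds had strongly negative values. Size under these conditions: about 69,000 compounds, about 10 of them at 50% or above in at least one test.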
Leishmania in macrophages: 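Cell assay of Leishmania donovani living inside macrophages; the read-out is not stated. Tested at 30 µM. Direction is inferred from retests: higher values go with stronger inhibition. Of about 69,000 compounds tested this way, about 1,000 (1.5%) reached 50% or more in at least one test.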
MtTrpRS: 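Tryptophan-tRNA ligase, Mycobacterium tuberculosis (UniProt P9WFT3). Enzyme assay of tryptophanyl-tRNA synthetase; the read-out is not stated. Concentration: 10 µM. Direction is not recorded; retested compounds ran higher, which suggests that high means inhibition. Size under these conditions: about 65,000 compounds, about 64 of them at 50% or above in at least one test.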

Each number is a percent effect as filed. The controls that fix the scale are not given in the record; negative values are as filed. Compounds were drawn at random from those tested, without regard to their results. A dash means the value is not listed here; it may have been measured.

For Cc1nn(CCNc2ncnc3c2NC(=O)CN3)c(C)c1Cl the result was Pks13 thioesterase: 24.12%; Toxoplasma: -13.76%; CoaBC: 4.937%; ClpP1P2: -253.8%; Leishmania in macrophages: 41.13%; MtTrpRS: -0.9492%.
For CSCCC(=O)N(C/C=C/c1ccccc1)CCO the result was Pks13 thioesterase: 0.5902%; Toxoplasma: -24.38%; CoaBC: -3.602%; ClpP1P2: -23.2%; Leishmania in macrophages: 10.08%; MtTrpRS: -0.8683%.
For Cc1ocnc1C(=O)N(C)[C@@H]1CCC[C@@H](N2CCCC2)[C@@H]1O the result was Pks13 thioesterase: -10.03%; Toxoplasma: -0.9197%; CoaBC: -2.283%; ClpP1P2: -21.73%; Leishmania in macrophages: 2.528%; MtTrpRS: 11.06%.
For Cc1ccc(N2CCCC(NCc3ccc(C)o3)C2)nn1 (stereo not given) the result was Pks13 thioesterase: -8.407%; Toxoplasma: 6.693%; CoaBC: -0.7833%; ClpP1P2: 1.106%; Leishmania in macrophages: 1.465%; MtTrpRS: -2.047%.
For CC(C)c1nc(CN(C)C(=O)c2ccc3c(c2)OCC(=O)N3)cs1 the result was Pks13 thioesterase: -1.934%; Toxoplasma: -38.98%; CoaBC: -4.113%; ClpP1P2: -2.979%; Leishmania in macrophages: 6.334%; MtTrpRS: 2.899%.
For CN(C)C(=O)[C@@H]1CCO[C@@H]2CCN(CCOCc3ccccc3)C[C@H]21 the result was CoaBC: -3.03%; ClpP1P2: 24.09%; MtTrpRS: 8.651%.
For COc1cc(-c2nc3c([nH]2)CCCNC3=O)cc(OC)c1OC the result was Pks13 thioesterase: -4.712%; Toxoplasma: -5.354%; CoaBC: 2.357%; ClpP1P2: -0.8293%; Leishmania in macrophages: -3.955%; MtTrpRS: 2.968%.
For O=C1N(Cc2cccc(F)c2F)CCCC1(O)CNCc1ccccn1 (stereo not given) the result was Pks13 thioesterase: -23.51%; Toxoplasma: -6.062%; CoaBC: 2.621%; ClpP1P2: -2.678%; Leishmania in macrophages: 19.77%; MtTrpRS: -1.615%.
For Oc1cc(C2CCCCN2C2CCCC2)nc(-c2ccncc2)n1 (stereo not given) the result was Pks13 thioesterase: 10.01%; Toxoplasma: 15.49%; CoaBC: -0.1227%; ClpP1P2: -5.396%; Leishmania in macrophages: -11.21%; MtTrpRS: -8.394%.
For CCC(C)Oc1cc(C(=O)Nc2nc(C)ns2)ccn1 (stereo not given) the result was Pks13 thioesterase: 24.43%; CoaBC: 1.107%; ClpP1P2: -16.19%; Leishmania in macrophages: 15.91%; MtTrpRS: -3.762%.
For [H][C@]12CC[C@@]3(N=C(C)N(CCOC)C3=O)[C@@]1([H])CN(C(=O)NC(C)C)C2 the result was Toxoplasma: 2.217%; Leishmania in macrophages: -27.2%.
For O=C(O)C(F)(F)F.[H][C@@]12CN(CCO)C[C@@]1([H])N(Cc1cccc(C)c1)C(=O)CO2 the result was Toxoplasma: -3.396%; Leishmania in macrophages: 17.83%.
For OC1(CNc2ccc(-c3nc(C4CC4)no3)cn2)CCCCC1 the result was Pks13 thioesterase: -9.826%; Toxoplasma: 9.425%; CoaBC: 0.9662%; ClpP1P2: 2.564%; Leishmania in macrophages: -15.42%; MtTrpRS: 0.5455%.
For Cc1nn(C)c(N(C)C)c1CNC1CCc2cc(F)ccc21.Cl (stereo not given) the result was Toxoplasma: 27.08%; Leishmania in macrophages: 30.59%.

For reference, 2 entries once more:

Compound	Pks13 thioesterase	Toxoplasma	CoaBC	ClpP1P2	Leishmania in macrophages	MtTrpRS
CCC(C)Oc1cc(C(=O)Nc2nc(C)ns2)ccn1 (stereo not given)	24.43	-	1.107	-16.19	15.91	-3.762
Oc1cc(C2CCCCN2C2CCCC2)nc(-c2ccncc2)n1 (stereo not given)	10.01	15.49	-0.1227	-5.396	-11.21	-8.394